Among all 360,000 compounds or so, about 610 (0.17%) were called active. The shares of active, inactive and inconclusive entries below differ from those in the screen. Cut-off read from the data, not from the text of the source: active = inhibition above about 30%; inconclusive = no clear call, values can overlap the other calls; inactive = below that.
Each molecule was assayed on Botulinum neurotoxin type A light chain protease (Clostridium botulinum A str. ATCC 3502) (assay: blockers of BoNT/A LC substrate cleavage – biochemical, flow cytometry, MLPCN library, primary screen (AID 588499; note: plate controls were buffer without enzyme for full effect and enzyme alone for no effect)). Settings: multiplex microsphere protease substrate cleavage, at 10 µM, stronger effect = higher value.
With Cc1ccc2c(c1)sc1nc(=O)n(-c3ccc(Cl)c(Cl)c3)c(=O)n12 the inhibition was inconclusive: -0.8%. In the case of COc1cc2c(cc1OC)CN(C(=O)C1(c3ccccc3)CC1)CC2, the inhibition is reported as inconclusive: 1.6%. For COc1cccc(-c2cc(-c3cccnc3)nc(N)c2C#N)c1, the inhibition was inconclusive: 8.9%. In the case of CCC(=O)Nc1ccc(/C=C(\C(C)=O)C(=O)c2ccccc2)cc1, the inhibition is reported as inconclusive: -14%. For CC(/C=C/c1ccccc1)=N\NC(=O)c1ccncc1, the inhibition was inactive: -1.3%. O=c1oc2ccccc2cc1-c1nc2c(s1)CCCC2 was tested, and the inhibition was inconclusive: 5.9%. For COc1ccc(C(=O)NCc2cccnc2)cc1S(=O)(=O)N1CCOCC1, the inhibition was inconclusive: -2.5%. In the case of CC(Oc1ccc2c3c(c(=O)oc2c1)CCCC3)C(=O)NCCCn1ccnc1 (centres undefined), the inhibition is reported as inactive: 9.5%. CC(C)C(=O)Nc1ccc(C(=O)NNC(=O)NC2CCCCC2)cc1 was tested, and the inhibition was inconclusive: 14.7%. With NC(=O)C(c1ccc(Cl)cc1Cl)c1ncc(C(F)(F)F)cc1Cl (centres undefined) the inhibition was inconclusive: 1.4%. With NS(=O)(=O)c1ccc(NC(=O)COC(=O)/C(=C/c2cccs2)c2cccs2)cc1 the inhibition was inactive: 0.4%. N#C/C(=C\c1ccccc1[N+](=O)[O-])C(=O)NCc1ccccc1 was tested, and the inhibition was inconclusive: -0.2%. For O=c1c2c(nc3c(-c4ccc(Cl)cc4)c[nH]n13)CCC2, the inhibition was inactive: -0.1%. With CCOc1ccc(S(=O)(=O)N(CC(=O)N/N=C/c2ccc(-c3ccc([N+](=O)[O-])cc3)o2)c2ccccc2)cc1 the inhibition was inactive: 22.6%. O=c1[nH][nH]c2c1C(c1ccc(Cl)c(Cl)c1)OC(CCc1ccccc1)C2 (centres undefined) was tested, and the inhibition was inactive: 0.1%. With COc1cc(OC)c(-c2nn3c(C4CCCCC4)nnc3s2)cc1OC the inhibition was inactive: -0.5%. CCNC(=S)NNC(=O)c1csc2c1CCCC2 was tested, and the inhibition was inconclusive: 3.5%. In the case of O=C(Cn1nnc(-c2cccs2)n1)NNC(=O)c1ccccc1Cl, the inhibition is reported as inconclusive: -11.7%. CN1CC[n+]2cnc3ccccc3c21 was tested, and the inhibition was inconclusive: 8.1%. With C=CCn1c(=O)/c(=C/c2ccc(O)cc2)s/c1=C(/C#N)c1nnc2n1CCCCC2 the inhibition was inactive: 1.5%. For COc1cc2c(cc1OC)C(C)N(CC(=O)Nc1ccc(C)c(S(=O)(=O)N3CCOCC3)c1)CC2 (centres undefined), the inhibition was inconclusive: 2.2%. With COc1ccc(S(=O)(=O)N2CCOCC2)cc1NC(=O)c1ccc(OCC(C)C)c(OC)c1 the inhibition was inconclusive: -2.9%. With O=C(c1ccc(Br)cc1)c1cc(-c2ccccn2)c(N2CCOCC2)s1 the inhibition was inconclusive: 6.1%. N/C(=N\OC(=O)c1ccc(Cl)cc1)c1[nH]ncc1Br was tested, and the inhibition was inconclusive: 4.1%.
